Patent WO2014084859A1
No constants are given. Whether binding was seen depends on the method and setting. Some results given as binding are weak or reduced against the parent protein; the word gives no strength. Tags and fused reporters may be left off the sequences shown.

What was measured:
[1] = target: T1, TMEM16A-GFP fusion protein on HEK293 stable cells (UniProt Q5XXA6); experiment: flow cytometry on TMEM16A expressing HEK293 cells, APC secondary antibody
T1 sequence (looked up): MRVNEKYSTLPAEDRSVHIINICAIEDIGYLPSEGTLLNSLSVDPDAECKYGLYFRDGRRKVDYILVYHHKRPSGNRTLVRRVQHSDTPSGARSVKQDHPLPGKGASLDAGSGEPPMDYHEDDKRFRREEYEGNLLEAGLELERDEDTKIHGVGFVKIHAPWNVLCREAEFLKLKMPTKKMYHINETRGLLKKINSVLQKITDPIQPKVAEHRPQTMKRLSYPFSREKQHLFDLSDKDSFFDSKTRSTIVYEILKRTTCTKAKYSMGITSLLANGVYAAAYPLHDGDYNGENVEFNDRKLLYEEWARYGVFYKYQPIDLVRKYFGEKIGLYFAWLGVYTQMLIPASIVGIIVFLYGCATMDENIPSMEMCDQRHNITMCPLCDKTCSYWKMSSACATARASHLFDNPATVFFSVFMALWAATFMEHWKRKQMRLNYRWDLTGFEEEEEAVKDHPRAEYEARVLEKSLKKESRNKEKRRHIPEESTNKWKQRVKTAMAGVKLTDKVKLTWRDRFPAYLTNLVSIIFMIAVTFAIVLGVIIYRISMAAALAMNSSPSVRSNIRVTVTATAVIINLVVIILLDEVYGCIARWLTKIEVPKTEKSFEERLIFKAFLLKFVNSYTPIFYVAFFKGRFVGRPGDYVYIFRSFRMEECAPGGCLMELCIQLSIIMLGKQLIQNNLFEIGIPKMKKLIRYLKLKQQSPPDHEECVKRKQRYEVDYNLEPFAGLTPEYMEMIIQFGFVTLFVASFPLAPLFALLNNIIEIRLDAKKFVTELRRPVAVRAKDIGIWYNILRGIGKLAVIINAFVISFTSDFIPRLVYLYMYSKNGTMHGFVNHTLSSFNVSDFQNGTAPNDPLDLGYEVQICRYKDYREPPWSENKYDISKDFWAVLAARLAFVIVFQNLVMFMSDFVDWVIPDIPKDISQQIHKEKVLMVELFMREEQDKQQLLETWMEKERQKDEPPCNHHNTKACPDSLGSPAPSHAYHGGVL

[2] = target: T1, TMEM16A-GFP fusion protein on HEK293 stable cells; experiment: flow cytometry on HEK293-TMEM16A cells
[3] = target: T1, TMEM16A-GFP fusion protein on HEK293 stable cells; experiment: flow cytometry on HEK293 stable cell lines

Measured: binding

B1: 12E11 (antibody, V domains shown)
VH: QVQLKESGPGLVQPSQTLTLTCTVSGFSLSNYDMHWVRQSPGKGLDWMGVIWGNGKTQYNSGLTSRLSISRDTSKSQVFLKMNSLQTEDTAIYFCTRSGYYYDGSYYSLFDYWGQGVMVTVSS
VL: DVVLTQTPPTLSATIGQSVSISCRSSQSLLHSNGNTYLNWLLQRPGQPPQLLIYLVSRLESGVPNRFSGSGSGTDFTLKISGVEAEDLGVYYCVQSTHAPAFGGGTKLELK
binds: all assays above
